Results are given in words; binding and its absence hold for the method and conditions named. Where a sequence is shown, tags or fusion partners need not be part of it.

In the assay the target is Entamoeba histolytica triosephosphate isomerase (Entamoeba histolytica) (UniProt O02611). The assay can be described thus: condition: only with lithium dodecyl sulphate (concentrations in Figure 4B); native gel or EMSA; BN-PAGE of thirty micrograms of purified TIM loaded with increasing concentrations of lithium dodecyl sulphate (LDS); aggregates to single monomers; both purified. (In general: A gel shift assay detects complexes by their altered migration in electrophoresis.)

B1: Entamoeba histolytica triosephosphate isomerase (enzyme, UniProt O02611 1-261)
chain: MSARKFVVGGNWKCNGTLASIETLTKGVAASVDAELAKKVEVIVGVPFIYIPKVQQILAGEANGANILVSAENAWTKSGAYTGEVHVGMLVDCQVPYVILGHSERRQIFHESNEQVAEKVKVAIDAGLKVIACIGETEAQRIANQTEEVVAAQLKAINNAISKEAWKNIILAYEPVWAIGTGKTATPDQAQEVHQYIRKWMTENISKEVAEATRIQYGGSVNPANCNELAKKADIDGFLVGGASLDAAKFKTIINSVSEKF
For B1, the binding result is on record as “no binding”.

Source of the values: paper PMC6987189, “Native aggregation is a common feature among triosephosphate isomerases of different species” (Scientific Reports, 2020).
